Reference: PubChem BioAssay AID180 (DTP/NCI, 2004)
The list is a part of this screen's results and no random one: its compounds were picked by chemical class. Other doses and runs of a compound may be missing. T/C gives the treated animals as a percentage of the vehicle group. Some entries show no survivor count and are marked so; the dose need not have been tolerated. Schedule codes are those of the source, read here as Q, the interval in days (D) or hours (H), X, the number of doses. Some doses were run more than once; the results are listed from low to high.

Tested on: BDF1 mice, Adenocarcinoma 755 s.c., tumor weight T/C
Assay: NCI In Vivo Anticancer Drug Screen. Data for tumor model Adenocarcinoma 755 (subcutaneous) in B6D2F1 (BDF1) mice
Conditions: T/C endpoint: mean tumor weight, schedule: Q01DX011 (ip), evaluation day not shown, higher T/C = larger tumour
Procedure: The antitumor activity of compounds was measured in mice bearing transplantable tumors. Survival or tumor size were measured and the results are expressed as the measurement made in the treated group (T) divided by the measurement made in the vehicle treated control group (C). The tumor model used in this assay is Adenocarcinoma 755 (subcutaneous) in B6D2F1 (BDF1) mice

[1] = dose: 12.5 mg/kg/injection, vehicle: carboxymethylcellulose (CMC)
[2] = dose: 25.0 mg/kg/injection, vehicle: carboxymethylcellulose (CMC)

Cc1ccc2nc(CN(CCCl)CCCl)[nH]c2c1
T/C (dose: 2.5 mg/kg/injection, vehicle: carboxymethylcellulose (CMC)): 78 % of control [survivor count not shown]
T/C (dose: 2.5 mg/kg/injection, vehicle: methylcellulose (MC)): 76 % of control [survivor count not shown]
T/C (dose: 5.0 mg/kg/injection, vehicle: carboxymethylcellulose (CMC)): 93 % of control [survivor count not shown]
T/C (dose: 5.0 mg/kg/injection, vehicle: methylcellulose (MC)): 122 % of control [survivor count not shown]
T/C (dose: 10.0 mg/kg/injection, vehicle: carboxymethylcellulose (CMC)): 117 % of control [survivor count not shown]
T/C (dose: 10.1 mg/kg/injection, vehicle: methylcellulose (MC)): 56 % of control [survivor count not shown]
T/C (dose: 20.0 mg/kg/injection, vehicle: carboxymethylcellulose (CMC)): 60 % of control [survivor count not shown]

O=C(O)CCCCc1ccc(N(CCCl)CCCl)cc1
T/C (dose: 2.0 mg/kg/injection, vehicle: saline): 61 % of control [survivor count not shown]
T/C (dose: 4.0 mg/kg/injection, vehicle: saline): 76 % of control [survivor count not shown]
T/C (dose: 8.0 mg/kg/injection, vehicle: saline): 70 % of control [survivor count not shown]
T/C (dose: 16.0 mg/kg/injection, vehicle: saline): 81 % of control [survivor count not shown]

ClCCNCCCl
T/C [1]: 57 % of control [survivor count not shown]
T/C [2]: 54 % of control [survivor count not shown]
T/C (dose: 50.0 mg/kg/injection, vehicle: carboxymethylcellulose (CMC)): 12 % of control [survivor count not shown]

ClCCNC(CCl)CCl
T/C (dose: 0.78 mg/kg/injection, vehicle: carboxymethylcellulose (CMC)): 69 % of control [survivor count not shown]
T/C (dose: 1.56 mg/kg/injection, vehicle: carboxymethylcellulose (CMC)): 74 % of control [survivor count not shown]
T/C (dose: 3.12 mg/kg/injection, vehicle: carboxymethylcellulose (CMC)): 94 % of control [survivor count not shown]
T/C (dose: 6.25 mg/kg/injection, vehicle: carboxymethylcellulose (CMC)): 33 [survivor count not shown] and 68 % of control [survivor count not shown]
T/C [1]: 39 % of control [survivor count not shown]
T/C [2]: 13 % of control [survivor count not shown]
T/C (dose: 25.0 mg/kg/injection, vehicle: saline): 86 % of control [survivor count not shown]
T/C (dose: 50.0 mg/kg/injection, vehicle: saline): 35 % of control [survivor count not shown]
T/C (dose: 100.0 mg/kg/injection, vehicle: saline): 1 % of control [survivor count not shown]

Cc1cc(C)c2nc(CN(CCCl)CCCl)[nH]c2c1
T/C (dose: 0.19 mg/kg/injection, vehicle: methylcellulose (MC)): 65 % of control [survivor count not shown]
T/C (dose: 0.38 mg/kg/injection, vehicle: methylcellulose (MC)): 70 % of control [survivor count not shown]
T/C (dose: 0.75 mg/kg/injection, vehicle: methylcellulose (MC)): 19 % of control [survivor count not shown]
T/C (dose: 1.0 mg/kg/injection, vehicle: methylcellulose (MC)): 65 % of control [survivor count not shown]
T/C (dose: 1.5 mg/kg/injection, vehicle: methylcellulose (MC)): 41 % of control [survivor count not shown]
T/C (dose: 3.0 mg/kg/injection, vehicle: carboxymethylcellulose (CMC)): 66 % of control [survivor count not shown]
T/C (dose: 3.0 mg/kg/injection, vehicle: methylcellulose (MC)): 35 % of control [survivor count not shown]
T/C (dose: 3.2 mg/kg/injection, vehicle: methylcellulose (MC)): 38 [survivor count not shown] and 108 % of control [survivor count not shown]
T/C (dose: 6.0 mg/kg/injection, vehicle: carboxymethylcellulose (CMC)): 55 % of control [survivor count not shown]
T/C (dose: 6.0 mg/kg/injection, vehicle: methylcellulose (MC)): 44 % of control [survivor count not shown]
T/C (dose: 6.5 mg/kg/injection, vehicle: methylcellulose (MC)): 32 [survivor count not shown] and 85 % of control [survivor count not shown]
T/C (dose: 12.0 mg/kg/injection, vehicle: carboxymethylcellulose (CMC)): 43 [survivor count not shown] and 149 % of control [survivor count not shown]
T/C (dose: 13.0 mg/kg/injection, vehicle: methylcellulose (MC)): 7 [survivor count not shown] and 47 % of control [survivor count not shown]
T/C (dose: 24.0 mg/kg/injection, vehicle: carboxymethylcellulose (CMC)): 36 [survivor count not shown] and 111 % of control [survivor count not shown]

CC(Cl)CN(CCCl)P1(=O)NCCCO1 (configuration not stated)
T/C (dose: 11.0 mg/kg/injection, vehicle: methylcellulose (MC)): 75 % of control [survivor count not shown]
T/C (dose: 22.0 mg/kg/injection, vehicle: methylcellulose (MC)): 54 % of control [survivor count not shown]
T/C (dose: 44.0 mg/kg/injection, vehicle: methylcellulose (MC)): 75 % of control [survivor count not shown]
T/C (dose: 88.0 mg/kg/injection, vehicle: methylcellulose (MC)): 19 % of control [survivor count not shown]
T/C (dose: 100.0 mg/kg/injection, vehicle: methylcellulose (MC)): 64 % of control [survivor count not shown]
